# The other results are listed elsewhere or left out. Small differences around the control level are noise.
# Chains of the proteins cited; added tags and fusions are not shown.
# UniProt P34972, whole entry: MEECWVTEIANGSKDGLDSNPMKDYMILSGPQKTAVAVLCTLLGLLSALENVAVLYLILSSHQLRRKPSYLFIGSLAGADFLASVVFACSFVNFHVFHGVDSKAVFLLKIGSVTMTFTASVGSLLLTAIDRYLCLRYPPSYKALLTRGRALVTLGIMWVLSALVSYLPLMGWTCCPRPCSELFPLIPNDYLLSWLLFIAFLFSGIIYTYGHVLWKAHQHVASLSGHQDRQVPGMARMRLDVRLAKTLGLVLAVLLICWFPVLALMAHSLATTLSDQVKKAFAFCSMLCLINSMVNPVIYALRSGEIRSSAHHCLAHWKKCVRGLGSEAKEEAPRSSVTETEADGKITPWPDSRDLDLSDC
# Target: CB2 (UniProt P34972)
# Assay: log2 fold change of tryptic peptide abundance, ligand vs vehicle (limited proteolysis) (log2 ratio); higher = more trypsin-susceptible (destabilized)
# Settings: peptide sequence: KCVRGLGSEAK; peptide start residue: 319; ligand concentration: 5 uM; sample: K562 cleared lysate
compound,measurement,value
Cc1nc(Nc2ncc(C(=O)Nc3c(C)cccc3Cl)s2)cc(N2CCN(CCO)CC2)n1 [dasatinib],log2 fold change,0.0667

# — the supplement of paper PMC12819154, “High-throughput peptide-centric local stability assay extends protein–ligand identification to membrane proteins, tissues and bacteria” (Nature Structural & Molecular Biology, 2025)
